This continues a long series; more values of the same kind are listed elsewhere.
Experiments:
Assay type in all cases: cell-based
Settings in all cases: U-87MG ATCC
[1] = Inhibition of RTK/PI3K/AKT/mTOR signaling in human U87 cells assessed as up regulation of sterol regulatory element binding transcription factor 2 gene expression at cytotoxic IC50 measured after 48 hrs relative to control
[2] = Inhibition of RTK/PI3K/AKT/mTOR signaling in human U87 cells assessed as up regulation of CST telomere replication complex component 1 gene expression at cytotoxic IC50 measured after 48 hrs relative to control
[3] = Inhibition of RTK/PI3K/AKT/mTOR signaling in human U87 cells assessed as down regulation of TRIM35 gene expression at cytotoxic IC50 measured after 48 hrs relative to control
[4] = Inhibition of RTK/PI3K/AKT/mTOR signaling in human U87 cells assessed as down regulation of LYPLA2 gene expression at cytotoxic IC50 measured after 48 hrs relative to control
[5] = Inhibition of RTK/PI3K/AKT/mTOR signaling in human U87 cells assessed as up regulation of TNFAIP8L1 gene expression at cytotoxic IC50 measured after 48 hrs relative to control
[6] = Inhibition of RTK/PI3K/AKT/mTOR signaling in human U87 cells assessed as down regulation of ATP6V1H gene expression at cytotoxic IC50 measured after 48 hrs relative to control
[7] = Inhibition of RTK/PI3K/AKT/mTOR signaling in human U87 cells assessed as down regulation of EXT1 gene expression at cytotoxic IC50 measured after 48 hrs relative to control
[8] = Inhibition of RTK/PI3K/AKT/mTOR signaling in human U87 cells assessed as up regulation of calnexin gene expression at cytotoxic IC50 measured after 48 hrs relative to control
[9] = Inhibition of RTK/PI3K/AKT/mTOR signaling in human U87 cells assessed as up regulation of D-tyrosyl-tRNA deacylase 2 (putative) gene expression at cytotoxic IC50 measured after 48 hrs relative to control
[10] = Inhibition of RTK/PI3K/AKT/mTOR signaling in human U87 cells assessed as down regulation of DNAJB2 gene expression at cytotoxic IC50 measured after 48 hrs relative to control
[11] = Inhibition of RTK/PI3K/AKT/mTOR signaling in human U87 cells assessed as up regulation of MARCKSL1 gene expression at cytotoxic IC50 measured after 48 hrs relative to control
[12] = Inhibition of RTK/PI3K/AKT/mTOR signaling in human U87 cells assessed as down regulation of BUD31 gene expression at cytotoxic IC50 measured after 48 hrs relative to control
[13] = Inhibition of RTK/PI3K/AKT/mTOR signaling in human U87 cells assessed as up regulation of wntless Wnt ligand secretion mediator gene expression at cytotoxic IC50 measured after 48 hrs relative to control
[14] = Inhibition of RTK/PI3K/AKT/mTOR signaling in human U87 cells assessed as down regulation of TTPAL gene expression at cytotoxic IC50 measured after 48 hrs relative to control
[15] = Inhibition of RTK/PI3K/AKT/mTOR signaling in human U87 cells assessed as up regulation of IARS2 gene expression at cytotoxic IC50 measured after 48 hrs relative to control
[16] = Inhibition of RTK/PI3K/AKT/mTOR signaling in human U87 cells assessed as up regulation of STT3A gene expression at cytotoxic IC50 measured after 48 hrs relative to control
[17] = Inhibition of RTK/PI3K/AKT/mTOR signaling in human U87 cells assessed as down regulation of BORCS5 gene expression at cytotoxic IC50 measured after 48 hrs relative to control
[18] = Inhibition of RTK/PI3K/AKT/mTOR signaling in human U87 cells assessed as up regulation of SLC17A9 gene expression at cytotoxic IC50 measured after 48 hrs relative to control
[19] = Inhibition of RTK/PI3K/AKT/mTOR signaling in human U87 cells assessed as down regulation of DNAJB1 gene expression at cytotoxic IC50 measured after 48 hrs relative to control
[20] = Inhibition of RTK/PI3K/AKT/mTOR signaling in human U87 cells assessed as down regulation of SMC6 gene expression at cytotoxic IC50 measured after 48 hrs relative to control
[21] = Inhibition of RTK/PI3K/AKT/mTOR signaling in human U87 cells assessed as down regulation of CHUK gene expression at cytotoxic IC50 measured after 48 hrs relative to control
[22] = Inhibition of RTK/PI3K/AKT/mTOR signaling in human U87 cells assessed as up regulation of myotubularin related protein 11 gene expression at cytotoxic IC50 measured after 48 hrs relative to control
[23] = Inhibition of RTK/PI3K/AKT/mTOR signaling in human U87 cells assessed as down regulation of TMEM268 gene expression at cytotoxic IC50 measured after 48 hrs relative to control
[24] = Inhibition of RTK/PI3K/AKT/mTOR signaling in human U87 cells assessed as up regulation of SMARCC1 gene expression at cytotoxic IC50 measured after 48 hrs relative to control
[25] = Inhibition of RTK/PI3K/AKT/mTOR signaling in human U87 cells assessed as down regulation of PTGS2 gene expression at cytotoxic IC50 measured after 48 hrs relative to control
[26] = Inhibition of RTK/PI3K/AKT/mTOR signaling in human U87 cells assessed as up regulation of PIH1 domain containing 1 gene expression at cytotoxic IC50 measured after 48 hrs relative to control
[27] = Inhibition of RTK/PI3K/AKT/mTOR signaling in human U87 cells assessed as down regulation of ZBTB34 gene expression at cytotoxic IC50 measured after 48 hrs relative to control
[28] = Inhibition of RTK/PI3K/AKT/mTOR signaling in human U87 cells assessed as up regulation of GALE gene expression at cytotoxic IC50 measured after 48 hrs relative to control
[29] = Inhibition of RTK/PI3K/AKT/mTOR signaling in human U87 cells assessed as down regulation of ETS1 gene expression at cytotoxic IC50 measured after 48 hrs relative to control
[30] = Inhibition of RTK/PI3K/AKT/mTOR signaling in human U87 cells assessed as up regulation of PROM1 gene expression at cytotoxic IC50 measured after 48 hrs relative to control
[31] = Inhibition of RTK/PI3K/AKT/mTOR signaling in human U87 cells assessed as down regulation of KIF11 gene expression at cytotoxic IC50 measured after 48 hrs relative to control
[32] = Inhibition of RTK assessed as Inhibition of RTK/PI3K/AKT/mTOR signaling in human U87 cells assessed as down regulation of JUN gene expression at cytotoxic IC50 measured after 48 hrs relative to control

CC(=O)C(=NNc1ccccc1C#N)C(C)=O
log2FC [1]: 0.972
log2FC [2]: 0.712
log2FC [3]: -0.798
log2FC [4]: -0.552
log2FC [5]: 1.62
log2FC [6]: -0.687
log2FC [7]: -1.45
log2FC [8]: 0.838
log2FC [9]: 1.05
log2FC [10]: -1.03
log2FC [11]: 0.553
log2FC [12]: -0.579
log2FC [13]: 1.2
log2FC [14]: -0.765
log2FC [15]: 0.446
log2FC [16]: 1.61
log2FC [17]: -1.28
log2FC [18]: 1.96
log2FC [19]: -1.31
log2FC [20]: -0.896
log2FC [21]: -1.1
log2FC [22]: 1.28
log2FC [23]: -0.851
log2FC [24]: 0.34
log2FC [25]: -1.91
log2FC [26]: 0.748
log2FC [27]: -0.906
log2FC [28]: 0.507
log2FC [29]: -2.07
log2FC [30]: 2.38
log2FC [31]: -0.828
log2FC [32]: -1.67

Source: ChEMBL document CHEMBL4316593 (Eur J Med Chem, 2019)
